A short description of this assay: qHTS Assay to Find Inhibitors of Chronic Active B-Cell Receptor Signaling. The note with it: ABC-DLBCL IkBa-CBG/CBR reporter, luminescence ratio (green luciferase fused to IkBa over red control in TMD8 lymphoma cells), 4 h. In a few lines: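 TMD8 ABC-DLBCL cells carrying doxycycline-inducible green luciferase fused to IkappaBalpha plus unfused red luciferase were exposed to compounds (up to 46 uM) for 4 hrs at 37C. Activity came from the overlap-corrected green/red luminescence ratio.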

Setting [1] is: measured here: CBR red luminescence, cell number.
Setting [2] is: measured here: IkBa-CBG green luminescence.

Where “and” joins values, the source holds several entries; their conditions need not be identical. Identical values can stand only once. The list shows a part of the results. The main result of the screen is listed elsewhere. These columns were measured beside it and carry no call. Compounds called inactive in the main read-out are mostly missing here. The note in brackets gives the kind of curve behind each potency; many fits are weak.

Turning to `O=C(N/N=C/c1ccc[nH]1)c1ccc(O)cc1`, the concentration at half-maximal activity (AC50) under setting [1] is 3.55 µM [falling, partial curve].
The same measure, in the same setting: with `CCCNC(=O)N(C)c1nncnc1C(=O)NC` the figure was 17.8 µM [rising, partial curve, poor fit].
Same read-out and setting: for `CC(=O)C1=C(C)NC(SCC(=O)c2ccc(Cl)cc2Cl)=C(C#N)C1c1ccco1` (stereo not given) the value was 35.5 µM [falling, single point].
With `COc1ccc(CC(NC(C)=O)C(=O)NC2CCN(C(=O)c3ccccc3F)CC2)cc1` (stereo not given), the AC50 under setting [1] is 31.6 µM [rising, single point].
Same read-out and setting: for `c1ccc(Oc2nnc(-c3cccs3)c3ccccc23)cc1` the value was 14.6 µM [rising, partial curve, poor fit]; for `COC(=O)c1ccc(COC(=O)c2ccc(SC)cc2OC)cc1`, 23.1 µM [falling, single point].
Same read-out and setting: with `CS(=O)(=O)Nc1cccc(S(=O)(=O)N2CCN(C(=O)c3ccccc3)CC2)c1` the figure was 2.51 µM [rising, partial curve, poor fit]; with `CCCN(CCC)C(=O)CSc1nc2ccsc2c(=O)n1NC(=O)c1ccccc1`, 0.316 µM [rising, partial curve, poor fit].
`Cc1ccc(NC(=O)CN2C(=O)C(C)Oc3ccccc32)nc1` (stereo not given): the AC50 under setting [1] was 35.5 µM [rising, partial curve, poor fit].
Still for that read-out and setting: with `Cc1ccc(-c2noc(-c3ccccc3C(=O)N3CCCC3)n2)cc1` the figure was 20 µM [rising, partial curve, poor fit]; with `CCCCc1ncc(CN2CCC(n3nccc3NC(=O)c3ccccc3Cl)CC2)[nH]1`, 3.16 µM [rising, full curve, poor fit]; with `COc1ccccc1-n1c(-c2ccccc2)c[n+]2c1CCc1ccccc1-2`, 17.8 µM [falling, partial curve, poor fit].
On the same count and under the same terms, with `COc1cc(OC)cc(OCC(O)Cn2ccnc2)c1` (stereo not given) the figure was 0.708 µM [falling, full curve, poor fit]; with `Cc1[nH]c(=O)[nH]c(=O)c1Cc1cccc2ccccc12`, 20 µM [rising, partial curve, poor fit]; with `CC(C)Oc1ccccc1C1NC(=O)CCC1[N+](=O)[O-]` (stereo not given), 35.5 µM [falling, single point].
Take `CN(CC(=O)Nc1ccc(F)cc1)C(=O)COc1ccccc1Cc1ccccc1`: the AC50 under setting [1] was 20.6 µM [falling, partial curve, poor fit].
Still for that read-out and setting: with `CCOc1ccc2ccccc2c1/C=N/NC(=O)CNC(=O)c1ccccc1O` the figure was 7.08 µM [falling, full curve, poor fit]; with `O=C(O)c1cccc(S(=O)(=O)Nc2ccc([N+](=O)[O-])cc2O)c1`, 35.5 µM [rising, single point].
On the same count and under the same terms, with `O=C(CCCCCNC(=O)c1ccccc1)N/N=C/c1ccccc1O` the figure was 29.1 µM [rising, single point]; with `Cc1ccc(S(=O)(=O)N(CCO)Cc2cc3ccc(C)c(C)c3[nH]c2=O)cc1`, 6.31 µM [rising, full curve]; with `CS(=O)(=O)Nc1ccc(C(=O)NCCc2ccccc2)cc1`, 3.66 µM [rising, single point].
On the same count and under the same terms, with `CCC1(c2ccc(Cl)cc2)NC(=S)N(c2ccccc2)N1` (stereo not given) the figure was 23.1 µM [falling, single point]; with `COc1ccccc1CNC(=O)CN1C(=O)c2cccc(N)c2C1=O`, 20 µM [falling, partial curve, poor fit].
As for `CC(C)c1cccc(C(C)C)c1OCCCCN1CCCC1`, under setting [1], the AC50 is 6.51 µM [falling, single point].
With `O=C(c1ccc(Cl)cc1)C1CCCN(Cc2ccc(Oc3ncccn3)cc2)C1` (stereo not given), the AC50 under setting [1] was 12.6 µM [falling, partial curve, poor fit].
Consider `CC(C)N(C(=O)[C@H]1C[C@H](CC(=O)NC(C)(C)C)C(=O)N2CCc3c([nH]c4cc(-c5ccco5)ccc34)[C@]12C)C(C)C`, for which the AC50 under setting [1] is 23.1 µM [falling, single point].
For the molecule `CC1(C)CC(=O)C=C(NNC(=O)c2ccccc2O)C1`, under setting [1], the AC50 was 7.94 µM [falling, partial curve, poor fit].
As for `COc1ccc(OC)c(S(=O)(=O)N2CCC(C(=O)Nc3ccc(C)c(C)c3)CC2)c1`, under setting [1], the AC50 is 0.891 µM [falling, partial curve, poor fit].
Consider `Cn1c(-c2c(N)n(CCc3ccccc3)c3nc4ccccc4nc23)nc2ccccc21`, for which, under setting [1], the AC50 was 20.6 µM [falling, single point].
The same measure, in the same setting: with `Fc1ccccc1/C=N/Nc1ccc(Cl)nn1` the figure was 0.794 µM [rising, partial curve, poor fit]; with `CN(CCC1CCOCC1)Cc1nc(Cc2ccccc2F)no1`, 35.5 µM [rising, single point]; with `COc1ccc(/C=C2\OC(=O)c3c(OC)cccc32)cc1OC`, 0.794 µM [rising, full curve].
As for `CCC(C)(C(=O)NC1CCCCC1)N(Cc1cccs1)C(=O)CC1NC(=O)NC1=O` (stereo not given), the AC50 reads like this: under setting [1], 23.1 µM [falling, single point]; under setting [2], 20.6 µM [rising, partial curve, poor fit].
Take `CC(=O)c1ccc(-c2ccc(C(=O)N3CCC(C(N)=O)CC3)o2)cc1`: the AC50 under setting [1] was 14.6 µM [rising, single point].
Same read-out and setting: with `CCOc1ccc(CNn2nnnc2N)cc1` the figure was 7.31 µM [rising, single point]; with `Cc1cc(C)n(-c2nc(NCc3cccnc3)c3c4c(sc3n2)COC(C)(C)C4)n1`, 35.5 µM [falling, single point].
Same read-out and setting: with `CCOc1ccc(CCNC(=O)COC(=O)c2ccc(F)c(S(=O)(=O)N3CCOCC3)c2)cc1OCC` the figure was 0.103 µM [rising, full curve, poor fit]; with `COc1cc(NC(=O)C2CCCN(c3ncccn3)C2)cc(OC)c1` (stereo not given), 2.31 µM [falling, partial curve, poor fit]; with `Cc1ccc(NC(=O)CNCc2ccccc2)cc1Br`, 31.6 µM [falling, single point].
Regarding `C/C(=N/OCO/N=C(\C)c1ccccc1)c1ccccc1`, the AC50 under setting [1] was 20.6 µM [rising, single point].
Still for that read-out and setting: with `COC(=O)Cc1[nH]c(=S)[nH]c1C(=O)OC` the figure was 2.51 µM [rising, full curve, poor fit]; with `O=c1c2ccccc2nc(SCc2ccccc2)n1Cc1ccco1`, 6.31 µM [falling, partial curve, poor fit]; with `CC1CCN(CCCCOc2ccccc2-c2ccccc2)CC1`, 20.6 µM [falling, single point].
Still for that read-out and setting: with `COc1ccc(NC(C)=O)cc1NC(C)C(=O)Nc1ccc(F)cc1` (stereo not given) the figure was 29.1 µM [falling, single point]; with `Cc1ccc(Cl)cc1NC(=O)CN1C=NS(=O)(=O)c2ccccc21`, 35.5 µM [falling, single point]; with `COc1cc(OC)c(OC)cc1/C=C1\Oc2cc(OS(C)(=O)=O)ccc2C1=O`, 5.62 µM [rising, partial curve, poor fit].
For `Cc1nc(-c2ccc(C(=O)Nc3cc(S(N)(=O)=O)ccc3C)cc2)cs1`, the AC50 under setting [1] is 8.91 µM [falling, partial curve].
The same measure, in the same setting: with `COc1ccc(C(=O)/C=C/Nc2ccc(S(=O)(=O)Nc3nc(C)cc(C)n3)cc2)cc1OC` the figure was 7.31 µM [rising, partial curve, poor fit].
As for `COc1ccc(/C=C/C(=O)C23CC4CC(CC(C4)C2)C3)cc1CN1CCOCC1`, the half-maximal activity concentration (AC50) under setting [1] is 35.5 µM [falling, single point].
On to `COc1ccc(COC(=O)c2ccc(Cl)c(S(=O)(=O)N3CCOCC3)c2)cc1F`, for which the AC50 under setting [1] is 0.126 µM [rising, full curve, poor fit].
On to `Cc1ccccc1C(=O)Oc1cccc2c(O)cccc12`, for which, under setting [1], the AC50 is 15.8 µM [rising, single point].
Still for that read-out and setting: for `COc1ccc(NC(=O)CSc2nc(C3CC3)nc3ccccc23)c(OC)c1` the value was 22.4 µM [falling, single point]; for `O=C(Nc1ccc(Cl)c(S(=O)(=O)N2CCOCC2)c1)c1cc2ccccc2oc1=O`, 0.82 µM [falling, partial curve, poor fit]; for `c1ccc(CNc2ncnc3ccccc23)cc1`, 11.2 µM [falling, partial curve, poor fit] and 7.08 µM [falling, full curve, poor fit].
Same read-out and setting: with `O=C(NC(=S)Nc1ccccc1C(=O)O)c1ccc2ccccc2c1` the figure was 7.94 µM [falling, partial curve].
On the same count and under the same terms, for `N=c1n(Cc2ccccc2)c2ccccc2n1CC(O)COc1ccccc1` (stereo not given) the value was 11.2 µM [falling, partial curve]; for `COc1ccc(C(=O)COc2cccc(NC(=O)c3ccco3)c2)cc1`, 25.9 µM [falling, single point].
Take `O=C(NCCO)Nc1ccc2nc(-c3ccco3)c(-c3ccco3)nc2c1`: the AC50 under setting [1] was 35.5 µM [falling, single point] and the half-maximal activity concentration (AC50) under setting [2] is 17.8 µM [rising, partial curve, poor fit].
Consider `COc1ccccc1NC(=O)Cn1nnc(C(=O)NCc2cccs2)c1N`, for which the AC50 is, setting by setting: under setting [1], 10 µM [rising, partial curve]; under setting [2], 5.62 µM [falling, partial curve].
In the case of `O=C1COc2ccc(S(=O)(=O)NCc3ccc(Cl)cc3)cc2N1`, the AC50 under setting [1] was 35.5 µM [falling, partial curve, poor fit].
Same read-out and setting: with `COc1cccc(C(=O)Nc2ccc(C3CC3(Cl)Cl)cc2)c1` (stereo not given) the figure was 11.2 µM [falling, partial curve, poor fit]; with `Cc1nc(SCC(=O)NC2(C#N)CCCC2)n(CC(C)C)c1C`, 16.4 µM [rising, partial curve, poor fit].

The AC50 is the concentration at which the activity in the assay is half-maximal.

Source of the values: PubChem BioAssay AID493014 (National Center for Advancing Translational Sciences (NCATS), 2011).
